PubChem BioAssay AID1259308, NCATS, 2017
Aim: 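Genes whose loss raises luciferase production in HEK293 cells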 (primary screen). Cell system: human HEK293 embryonic kidney cells stably expressing firefly luciferase (HEK-CMV-Luc2-Hygro). Reagents: single siRNA against human genes, 0.8 pmol siRNA per well. Timing: 72 h. Measurement: 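Reporter luminescence and viable-cell signal on separate replicate plates, given as percent of non-targeting control and median/MAD z-scores, plus per-cell luciferase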. Direction: total luciferase, z-score: higher = more reporter protein produced. Rule for the call: 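Active when the median/MAD z-score for overall luciferase is greater than 3; a gene was taken forward for validation with new siRNAs if at least two of its three siRNAs passed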. Calls: active = raised luciferase; inactive = no rise.
In all, the deposit lists about 59,000 reagents; shown is an unselected part. Over the whole deposit, about 1,510 (2.6%) were called active. 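Calls use total luciferase alone and ignore viability, so some active siRNAs may act by altering cell number.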 Reagents against one gene are numbered here. Further read-outs or replicates are left out here.

| gene knocked down | siRNA no. | total luciferase, z-score | Call |
| --- | --- | --- | --- |
| PGAM2 (phosphoglycerate mutase 2) | 1 | -2.24 | inactive |
| PGAM2 (phosphoglycerate mutase 2) | 2 | -0.0875 | inactive |
| PGAM2 (phosphoglycerate mutase 2) | 3 | 0.289 | inactive |
| ZNF410 (zinc finger protein 410) | 1 | -0.163 | inactive |
| ZNF410 (zinc finger protein 410) | 2 | -0.414 | inactive |
| ZNF410 (zinc finger protein 410) | 3 | 1.71 | inactive |
| HRAS (HRas proto-oncogene, GTPase) | 1 | -0.0762 | inactive |
| HRAS (HRas proto-oncogene, GTPase) | 2 | 1.22 | inactive |
| HRAS (HRas proto-oncogene, GTPase) | 3 | -1.62 | inactive |
| PHF5A (PHD finger protein 5A) | 1 | 1.49 | inactive |
| PHF5A (PHD finger protein 5A) | 2 | 5.01 | active |
| PHF5A (PHD finger protein 5A) | 3 | 0.921 | inactive |
| ZDHHC13 (zDHHC palmitoyltransferase 13) | 1 | -2.11 | inactive |
| ZDHHC13 (zDHHC palmitoyltransferase 13) | 2 | 0.111 | inactive |
| ZDHHC13 (zDHHC palmitoyltransferase 13) | 3 | -1.05 | inactive |
| UBR3 (ubiquitin protein ligase E3 component n-recognin 3) | 1 | 2.24 | inactive |
| UBR3 (ubiquitin protein ligase E3 component n-recognin 3) | 2 | -0.73 | inactive |
| UBR3 (ubiquitin protein ligase E3 component n-recognin 3) | 3 | 1.19 | inactive |
| CD37 (CD37 molecule) | 1 | 0.261 | inactive |
| CD37 (CD37 molecule) | 2 | 0.447 | inactive |
| CD37 (CD37 molecule) | 3 | 8.01 | active |
| RASGRP3 (RAS guanyl releasing protein 3) | 1 | -0.0272 | inactive |
| RASGRP3 (RAS guanyl releasing protein 3) | 2 | -0.0802 | inactive |
| RASGRP3 (RAS guanyl releasing protein 3) | 3 | -0.737 | inactive |
| UBFD1 (ubiquitin family domain containing 1) | 1 | -0.875 | inactive |
| UBFD1 (ubiquitin family domain containing 1) | 2 | -0.782 | inactive |
| UBFD1 (ubiquitin family domain containing 1) | 3 | 0.965 | inactive |
| SERPIND1 (serpin family D member 1) | 1 | -0.471 | inactive |
| SERPIND1 (serpin family D member 1) | 2 | -1.28 | inactive |
| SERPIND1 (serpin family D member 1) | 3 | -0.285 | inactive |
| RBMS2 (RNA binding motif single stranded interacting protein 2) | 1 | -1.68 | inactive |
| RBMS2 (RNA binding motif single stranded interacting protein 2) | 2 | 1.64 | inactive |
| RBMS2 (RNA binding motif single stranded interacting protein 2) | 3 | 1.85 | inactive |
| NFATC4 (nuclear factor of activated T cells 4) | 1 | -0.0281 | inactive |
| NFATC4 (nuclear factor of activated T cells 4) | 2 | -0.0139 | inactive |
| NFATC4 (nuclear factor of activated T cells 4) | 3 | 2.4 | inactive |
| TMEM222 (transmembrane protein 222) | 1 | -0.152 | inactive |
| TMEM222 (transmembrane protein 222) | 2 | 0.29 | inactive |
| TMEM222 (transmembrane protein 222) | 3 | -0.273 | inactive |
| PLEKHG1 (pleckstrin homology and RhoGEF domain containing G1) | 1 | -1.44 | inactive |
| PLEKHG1 (pleckstrin homology and RhoGEF domain containing G1) | 2 | 0.687 | inactive |
| PLEKHG1 (pleckstrin homology and RhoGEF domain containing G1) | 3 | -1.63 | inactive |
| SMARCC1 (SWI/SNF related BAF chromatin remodeling complex subunit C1) | 1 | -0.358 | inactive |
| SMARCC1 (SWI/SNF related BAF chromatin remodeling complex subunit C1) | 2 | -0.441 | inactive |
| SMARCC1 (SWI/SNF related BAF chromatin remodeling complex subunit C1) | 3 | -1.1 | inactive |
| POLR2J3 (RNA polymerase II subunit J3) | 1 | -3.52 | inactive |
| POLR2J3 (RNA polymerase II subunit J3) | 2 | -2.92 | inactive |
| POLR2J3 (RNA polymerase II subunit J3) | 3 | -3.25 | inactive |
| DPEP3 (dipeptidase 3) | 1 | -1.14 | inactive |
| DPEP3 (dipeptidase 3) | 2 | 0.0483 | inactive |
| DPEP3 (dipeptidase 3) | 3 | -0.693 | inactive |
| SPRN (shadow of prion protein) | 1 | -0.0805 | inactive |
| SPRN (shadow of prion protein) | 2 | 1.13 | inactive |
| SPRN (shadow of prion protein) | 3 | -1.24 | inactive |
| MAMDC4 (MAM domain containing 4) | 1 | 2.31 | inactive |
| MAMDC4 (MAM domain containing 4) | 2 | 0.522 | inactive |
| MAMDC4 (MAM domain containing 4) | 3 | 0.191 | inactive |
| RAB25 (RAB25, member RAS oncogene family) | 1 | 0.186 | inactive |
| RAB25 (RAB25, member RAS oncogene family) | 2 | 4 | active |
| RAB25 (RAB25, member RAS oncogene family) | 3 | 1.67 | inactive |
| UQCRHL (ubiquinol-cytochrome c reductase hinge protein like) | 1 | 1.07 | inactive |
| UQCRHL (ubiquinol-cytochrome c reductase hinge protein like) | 2 | -0.219 | inactive |
| UQCRHL (ubiquinol-cytochrome c reductase hinge protein like) | 3 | 0.356 | inactive |
| ITGBL1 (integrin subunit beta like 1) | 1 | -0.335 | inactive |
| ITGBL1 (integrin subunit beta like 1) | 2 | 4.61 | active |
| ITGBL1 (integrin subunit beta like 1) | 3 | -1.06 | inactive |
| SACK1H (scaffolding CK1 anchoring protein H) | 1 | -1.91 | inactive |
| SACK1H (scaffolding CK1 anchoring protein H) | 2 | -0.513 | inactive |
| SACK1H (scaffolding CK1 anchoring protein H) | 3 | -0.38 | inactive |
| FOXN3-AS1 (FOXN3 antisense RNA 1) | 1 | -0.415 | inactive |
| FOXN3-AS1 (FOXN3 antisense RNA 1) | 2 | -0.0107 | inactive |
| FOXN3-AS1 (FOXN3 antisense RNA 1) | 3 | -0.284 | inactive |
| PON3 (paraoxonase 3) | 1 | -0.889 | inactive |
| PON3 (paraoxonase 3) | 2 | -1.35 | inactive |
| PON3 (paraoxonase 3) | 3 | 1.21 | inactive |

Copied from above for reference:
| gene knocked down | siRNA no. | total luciferase, z-score | Call |
| --- | --- | --- | --- |
| UBFD1 (ubiquitin family domain containing 1) | 2 | -0.782 | inactive |
| UBFD1 (ubiquitin family domain containing 1) | 3 | 0.965 | inactive |
| SERPIND1 (serpin family D member 1) | 1 | -0.471 | inactive |
| SERPIND1 (serpin family D member 1) | 2 | -1.28 | inactive |
